Source: article PMC9277809
Results are given in words; binding and its absence hold for the method and conditions named. Some results given as binding are weak or reduced against the parent protein; the word gives no strength.

T1: NRR (rice (Oryza sativa L.)) (UniProt Q5ZEF1)
T1 sequence: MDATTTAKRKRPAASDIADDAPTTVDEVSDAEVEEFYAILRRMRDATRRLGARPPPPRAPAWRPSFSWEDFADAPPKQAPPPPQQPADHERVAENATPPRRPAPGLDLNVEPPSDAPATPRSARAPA


Tests used:
[1] = target: T1, NRR (rice (Oryza sativa L.)); experiment: two-hybrid; confirmation of single bait-E3 pairs in yeast; growth on DDO (SD-Leu-Trp) and QDO (SD-Leu-Trp-His-Ade); called yeast co-transformation assay for OsPAL1-OsFBK16
[2] = target: T1, NRR (rice (Oryza sativa L.)); experiment: two-hybrid; library screen: AH109 carrying the pGBKT7-bait mated with Y187 carrying the pGADT7-UbE3 library (1499 E3 ORFs) at 30 °C for 20-24 h; selection on SD-Leu-Trp-His-Ade; positive clones identified by PCR and sequencing

Row | Binder | binding [1] | binding [2]
1 | OsNPR2 (protein, UniProt Q0JJ01 1-635) MPARSAVVVIAMEPSSSITIASSSSYLSNGSSPCSVSLAPPGAGAVAAQAAPVAAGEGGGGGGGGGGGGSSSVEVVSLNRLSANLERLLLDSDLDCSDADVDVADGGPPVPVHRCILAARSTFFYNLFAARGRGGDGAAGGGGGGGGGGGERTGGRPRYKMEELVPGGRVGRDAFLSLLGYLYTGKLRPAPDDVVSCADPMCPHDSCPPAIRFNVEQMYAAWAFKITELISLFQRRLLNFVDKTLVEDVLPILQVAFHSELTPVLEKCIRRIARSNLDNVSLDKELPPEVAVQIKEIRQKSQPNEGDTVISDPVHEKRVRRIHRALDSDDVELVKLLLNESEITLDDANALHYAAAYCDSKVVSELLDLRLANLNLKNSRGYTALHLAAMRREPAIIMCLLNKGAAVSQLTADGQSAMSICRRLTRMKDYNTKMEQGQESNKDRLCIDILDREMIRKPMAVEDSVTSPLLADDLHMKLLYLENRVAFARLFFPAEAKVAMQIAQADTTPEFGIVPAASTSGKLKEVDLNETPVTQNKRLRSRVDALMKTVELGRRYFPNCSQVLDKFLEDDLPDSPDALDLQNGTSDEQNVKRMRFCELKEDVRKAFSKDRADNSMFSILSSSSSSSPPPKVAKK | binds | binds
2 | OsNPR3 (protein, UniProt Q75HA6 1-589) METSTISFSSSSPPSPPPPQPAPGDIDAVSLGRLSRNLENLLDPAFLNCADAEIVLASGGGDPGGGAVVGVHRCILAARSRFFYDHFSSAPAPAPATAGDKPQLDLDGLVPGGRHIGRDALVAVLSYLYTGRLRSAPPEAAACLDDGCSHDACRPAIDFVVESTYAASGFQISELVSLFQRRLSDFVNKALAEDILPILVVASTCHLPELLNQCIQRVANSNLDNRYLEKRLPDDLYAKLKEFRVPDEPHSGILDPEHEKRVRNIHKALDSDDVDLVGMLLKESPVTLDDAFAIHYAAAYCEPKVLAELLKLESANVNLKNSSGYTPLHMACMRREPDIIVSLIEKGASVLERTQDGRDALTICKRLTREKDRNEKSEKCKERSKAYLCIGVLQQEIKRRPQILEDQMSAEESIATPLLVDNFHMRLLNLENRVAFARIFFPSEAKLVMRIAQADSTQEFAGLTSANFSKLKEVDLNETPTMQNRRLRERLDALTKTVELGRRYFPHCSEVLDKFLNEESTDLILLESGTAEDQQTKRMRFSELREDVRKAFTKDKAAGAAISSSTSASSSPRYETKLRPGNKKGKLSR | binds | binds
